# Results as given in the supplement of paper PMC8728848.
# The other results are listed elsewhere or left out.
# B1: GS7807I-bvu-563-22-563 (Bacteroides vulgatus) (protein)
# chain: IFSSCTDDFEKLNTSNIQVDPADLPFAAQCTEPMTYCYPPQQNMFQFWTNLTIDLYGGYFMTPNGNFTNGDMGENRGHSGGMYENYYLHIFNNTRRIIAQCDASGERGLSGVMRIVQAYGTLMTTDAYGPIPYSSILSGENEVYFEFDSQKDLYKAMLEDLSTAITDISAMGADEIAKLKSFDCWCNGDKDLWVKIANTMKLRMALRLSKRETEAGNAGMNLKAIATEAAQNTLATVNKDILIDKSLENEMWLMFNWGDCGFNANLVTIMSGTKDPRQPLYMTLNTGDIKNEAGTTTVAANSQYLGIRFASGLPAKPNSWGNFSGWIQGNNGSSYSMPLPIMKAAEAYFLLAEAKLRWDIGSESVKNLYENGIRVSMTNELAYRGAYAGIKEYPEGAVDAYINGTSTQIDYTDPIKAELSTPAVNKLSVKWDESASNEEKLERIITQKWLALFPLSTEGWAEQRRTGYPRFFPAFVNESNGAVNTEEGVRRVIYSSQAYDANAKGVEGGIKLLDEENSSKFGISGDKGGTHLWWDNADKGNF
# What was measured:
# Experiment in all cases: glycan array binding signal (z-score within array); higher = stronger binding
# Details in all cases: glycan notation: IUPAC condensed, linker removed
# Fuc(a1-2)Gal = biological target: Fuc(a1-2)Gal
# How it was run: (§1)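 Negative Z-scores can be read as non-binding. The Z-score is calculated within each array and then averaged across arrays of one protein sequence at different concentrations or buffers and across linkers. Arrays, 3228 in all, were curated from the Consortium for Functional Glycomics database and kept only where the protein sequence was available.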
# Fuc(a1-2)Gal(b1-3)GalNAc = biological target: Fuc(a1-2)Gal(b1-3)GalNAc
# How it was run: as §1
# [1] = biological target: Fuc(a1-2)Gal(b1-3)GalNAc(a1-3)[Fuc(a1-2)]Gal(b1-4)Glc
# How it was run: as §1
# [2] = biological target: Fuc(a1-2)Gal(b1-3)GalNAc(a1-3)[Fuc(a1-2)]Gal(b1-4)GlcNAc
# How it was run: as §1
# [3] = biological target: Fuc(a1-2)Gal(b1-3)GalNAc(b1-3)Gal
# How it was run: as §1
# [4] = biological target: Fuc(a1-2)Gal(b1-3)GalNAc(b1-3)Gal(a1-4)Gal(b1-4)Glc
# How it was run: as §1
# [5] = biological target: Fuc(a1-2)Gal(b1-3)GalNAc(b1-4)[Neu5Ac(a2-3)]Gal(b1-4)Glc
# How it was run: as §1
# Fuc(a1-2)Gal(b1-3)GlcNAc = biological target: Fuc(a1-2)Gal(b1-3)GlcNAc
# How it was run: as §1
# [6] = biological target: Fuc(a1-2)Gal(b1-3)GlcNAc(b1-2)Man(a1-3)[Fuc(a1-2)Gal(b1-3)GlcNAc(b1-2)Man(a1-6)]Man(b1-4)GlcNAc(b1-4)GlcNAc
# How it was run: as §1
# [7] = biological target: Fuc(a1-2)Gal(b1-3)GlcNAc(b1-2)Man(a1-3)[Fuc(a1-2)Gal(b1-3)GlcNAc(b1-2)Man(a1-6)]Man(b1-4)GlcNAc(b1-4)[Fuc(a1-6)]GlcNAc
# How it was run: as §1
# [8] = biological target: Fuc(a1-2)Gal(b1-3)GlcNAc(b1-3)Gal(b1-4)Glc
# How it was run: as §1
# [9] = biological target: Fuc(a1-2)Gal(b1-3)GlcNAc(b1-3)GalNAc
# How it was run: as §1
# [10] = biological target: Fuc(a1-2)Gal(b1-3)GlcNAc(b1-3)[Fuc(a1-2)Gal(b1-3)GlcNAc(b1-6)]GalNAc
# How it was run: as §1
# [11] = biological target: Fuc(a1-2)Gal(b1-3)GlcNAc(b1-3)[Gal(b1-4)GlcNAc(b1-6)]Gal(b1-4)Glc
# How it was run: as §1
# [12] = biological target: Fuc(a1-2)Gal(b1-3)GlcNAc(b1-3)[Neu5Ac(a2-6)Gal(b1-4)GlcNAc(b1-6)]Gal(b1-4)Glc
# How it was run: as §1
# [13] = biological target: Fuc(a1-2)Gal(b1-3)GlcNAc6S
# How it was run: as §1
# [14] = biological target: Fuc(a1-2)Gal(b1-3)[Fuc(a1-4)]GlcNAc
# How it was run: as §1
# [15] = biological target: Fuc(a1-2)Gal(b1-3)[Fuc(a1-4)]GlcNAc(b1-2)Man(a1-3)[Fuc(a1-2)Gal(b1-3)[Fuc(a1-4)]GlcNAc(b1-2)Man(a1-3)]Man(b1-4)GlcNAc(b1-4)GlcNAc
# How it was run: as §1
# [16] = biological target: Fuc(a1-2)Gal(b1-3)[Fuc(a1-4)]GlcNAc(b1-2)Man(a1-3)[Fuc(a1-2)Gal(b1-3)[Fuc(a1-4)]GlcNAc(b1-2)Man(a1-6)]Man(b1-4)GlcNAc(b1-4)[Fuc(a1-6)]GlcNAc(b1-4)[Fuc(a1-6)]GlcNAc
# How it was run: as §1
# [17] = biological target: Fuc(a1-2)Gal(b1-3)[Fuc(a1-4)]GlcNAc(b1-3)[Fuc(a1-3)[Gal(b1-4)]GlcNAc(b1-6)]Gal(b1-4)Glc
# How it was run: as §1
# [18] = biological target: Fuc(a1-2)Gal(b1-3)[Fuc(a1-4)]GlcNAc(b1-3)[Gal(b1-4)GlcNAc(b1-6)]Gal(b1-4)Glc
# How it was run: as §1
# Fuc(a1-2)Gal(b1-4)Glc = biological target: Fuc(a1-2)Gal(b1-4)Glc
# How it was run: as §1
# Fuc(a1-2)Gal(b1-4)Glc6S = biological target: Fuc(a1-2)Gal(b1-4)Glc6S
# How it was run: as §1
# Fuc(a1-2)Gal(b1-4)GlcNAc = biological target: Fuc(a1-2)Gal(b1-4)GlcNAc
# How it was run: as §1
# [19] = biological target: Fuc(a1-2)Gal(b1-4)GlcNAc(b1-2)Man
# How it was run: as §1
# [20] = biological target: Fuc(a1-2)Gal(b1-4)GlcNAc(b1-2)Man(a1-3)[Fuc(a1-2)Gal(b1-4)GlcNAc(b1-2)Man(a1-6)]Man(b1-4)GlcNAc(b1-4)GlcNAc
# How it was run: as §1
# [21] = biological target: Fuc(a1-2)Gal(b1-4)GlcNAc(b1-2)Man(a1-3)[Fuc(a1-2)Gal(b1-4)GlcNAc(b1-2)Man(a1-6)]Man(b1-4)GlcNAc(b1-4)[Fuc(a1-6)]GlcNAc
# How it was run: as §1
# [22] = biological target: Fuc(a1-2)Gal(b1-4)GlcNAc(b1-2)[Fuc(a1-2)Gal(b1-4)GlcNAc(b1-4)]Man(a1-3)[Fuc(a1-2)Gal(b1-4)GlcNAc(b1-2)Man(a1-6)]Man(b1-4)GlcNAc(b1-4)GlcNAc
# How it was run: as §1
# [23] = biological target: Fuc(a1-2)Gal(b1-4)GlcNAc(b1-3)Gal(b1-4)GlcNAc
# How it was run: as §1
# [24] = biological target: Fuc(a1-2)Gal(b1-4)GlcNAc(b1-3)Gal(b1-4)GlcNAc(b1-2)Man(a1-3)[Fuc(a1-2)Gal(b1-4)GlcNAc(b1-3)Gal(b1-4)GlcNAc(b1-2)Man(a1-6)]Man(b1-4)GlcNAc(b1-4)GlcNAc
# How it was run: as §1
binder,measurement,setting,value
B1,glycan array binding signal (z-score),Fuc(a1-2)Gal,-0.28
same,glycan array binding signal (z-score),Fuc(a1-2)Gal(b1-3)GalNAc,-0.032
same,glycan array binding signal (z-score),[1],-0.989
same,glycan array binding signal (z-score),[2],-1.01
same,glycan array binding signal (z-score),[3],0.648
same,glycan array binding signal (z-score),[4],-0.11
same,glycan array binding signal (z-score),[5],-0.036
same,glycan array binding signal (z-score),Fuc(a1-2)Gal(b1-3)GlcNAc,-0.227
same,glycan array binding signal (z-score),[6],4.25
same,glycan array binding signal (z-score),[7],-0.345
same,glycan array binding signal (z-score),[8],-0.939
same,glycan array binding signal (z-score),[9],-0.347
same,glycan array binding signal (z-score),[10],-0.424
same,glycan array binding signal (z-score),[11],0.342
same,glycan array binding signal (z-score),[12],-0.639
same,glycan array binding signal (z-score),[13],-0.73
same,glycan array binding signal (z-score),[14],-0.74
same,glycan array binding signal (z-score),[15],0.119
same,glycan array binding signal (z-score),[16],0.263
same,glycan array binding signal (z-score),[17],1.04
same,glycan array binding signal (z-score),[18],-0.806
same,glycan array binding signal (z-score),Fuc(a1-2)Gal(b1-4)Glc,0.585
same,glycan array binding signal (z-score),Fuc(a1-2)Gal(b1-4)Glc6S,-0.436
same,glycan array binding signal (z-score),Fuc(a1-2)Gal(b1-4)GlcNAc,-1.46
same,glycan array binding signal (z-score),[19],-1.01
same,glycan array binding signal (z-score),[20],0.94
same,glycan array binding signal (z-score),[21],0.253
same,glycan array binding signal (z-score),[22],-0.412
same,glycan array binding signal (z-score),[23],-1.09
same,glycan array binding signal (z-score),[24],0.359

# Random excerpt: 2 entries already listed
binder,measurement,setting,value
B1,glycan array binding signal (z-score),[7],-0.345
same,glycan array binding signal (z-score),[10],-0.424
